Laboratory results published in patent US20210163453A1, “DERIVATIVES OF PAPAVERINE THAT ARE EFFECTIVE HYPOXIC TUMOR RADIOSENSITIZERS” (Ohio State Innovation Foundation, priority 2018, published 2021).
At least one compound was matched to its structure with a doubt left.

System: oxygen consumption (mitochondrial function)
Assay: Seahorse XF analysis of oxygen consumption in vitro, cell line not stated
Format: cell-based
Method: Seahorse analysis of the OCR. Oxygen consumption rate (OCR) was measured using Seahorse XF96 Flux Analyzer (Agilent Technologies). The cells were seeded to attach overnight, wells were washed with pre-warmed XF Calibrant (Agilent Technologies) and the replaced with unbuffered Assay Medium (pH 7.4, 5 mM glucose, 1 mM L-glutamine). The plates were incubated at 37° C. in a CO2-free incubator for 2 hours prior to assay. For succinate rescue assay, cells were permeabilized using XF Plasma Membrane Permeabilizer Reagent (XF PMP, Agilent Technologies) according to the manufacturer's instructions. The OCR rate was measured in 1× Mitochondrial Assay Solution (MAS) (70 mM sucrose, 220 mM mannitol, 10 mM KH2PO4, 5 mM MgCl2, 2 mM Hepes, 0.6% (w/v) fatty acid-free BSA and 1 mM EGTA; pH 7.4). After baseline oxygenation was established, 1 μM rotenone or 10 μM PPV was injected at time A, followed by 5 mM succinate at time B. Error bars represent standard deviation. For the washout experiment, EO771 cells were seeded overnight, then treated with 10 μM PPV or 1 μM rotenone 3 hours prior to OCR measurement. Media was replaced 1 and 2 hours before measurement and OCR reported.

## CN1CC(=O)N2[C@H](c3ccc4c(c3)OCO4)c3[nH]c4ccccc4c3C[C@@H]2C1=O [tadalafil]
  inhibition of oxygen consumption / mitochondrial function in vitro: ineffective
